Earlier results as cited in PMC12127550 (The Journal of Biological Chemistry, 2025).

Test system: OATP1B1
Conditions: no reference given; cited from earlier work

## CC(C)c1c(C(=O)Nc2ccccc2)c(-c2ccccc2)c(-c2ccc(F)cc2)n1CC[C@@H](O)C[C@@H](O)CC(=O)O [atorvastatin]
  inhibition of and transport by OATP1B1: non-inhibitory transport substrate for OATP1B1
